These are yes or no findings as the source states them, for the method shown. Some binding calls cover weakened binding; strength is not graded here. Sequences can lack the tags named with a protein.
Target: T1, Full-length wild type N-terminally hexa-histidine tagged S. cerevisiae Kar9 (S. cerevisiae) (UniProt P32526)
T1 sequence: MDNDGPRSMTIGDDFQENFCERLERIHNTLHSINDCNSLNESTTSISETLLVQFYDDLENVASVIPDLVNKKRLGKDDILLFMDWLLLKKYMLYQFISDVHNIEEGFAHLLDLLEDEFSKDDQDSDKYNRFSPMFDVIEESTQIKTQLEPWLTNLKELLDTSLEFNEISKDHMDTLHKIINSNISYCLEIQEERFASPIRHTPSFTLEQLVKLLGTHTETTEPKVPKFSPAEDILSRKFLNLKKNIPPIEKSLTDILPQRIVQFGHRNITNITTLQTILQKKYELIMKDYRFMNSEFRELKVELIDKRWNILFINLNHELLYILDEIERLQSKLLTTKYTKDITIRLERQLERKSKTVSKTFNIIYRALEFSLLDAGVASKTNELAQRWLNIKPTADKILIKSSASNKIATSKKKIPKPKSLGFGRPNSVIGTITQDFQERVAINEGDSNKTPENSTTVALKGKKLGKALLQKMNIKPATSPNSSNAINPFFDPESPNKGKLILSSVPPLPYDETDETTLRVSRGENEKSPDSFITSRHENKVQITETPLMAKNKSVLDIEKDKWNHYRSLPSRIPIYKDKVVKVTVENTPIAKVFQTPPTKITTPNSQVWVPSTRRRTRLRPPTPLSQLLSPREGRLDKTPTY
Experiment: co-purification

B1: Full-length S. cerevisiae Bim1, untagged (protein, UniProt P40013 1-344)
chain: MSAGIGESRTELLTWLNGLLNLNYKKIEECGTGAAYCQIMDSIYGDLPMNRVKFNATAEYEFQTNYKILQSCFSRHGIEKTVYVDKLIRCKFQDNLEFLQWLKKHWIRHKDESVYDPDARRKYRPIITNNSATKPRTVSNPTTAKRSSSTGTGSAMSGGLATRHSSLGINGSRKTSVTQGQLVAIQAELTKSQETIGSLNEEIEQYKGTVSTLEIEREFYFNKLRDIEILVHTTQDLINEGVYKFNDETITGHGNGNGGALLRFVKKVESILYATAEGFEMNDGEDELNDKNLGEHGTVPNQGGYANSNGEVNGNEGSNHDVIMQNDEGEVGVSNNLIIDEETF
For B1, the binding was “binds”.

Source: article doi:10.1101/2021.09.13.460064
